Experimental data from US20050106100A1 (priority 2003, published 2005).

Test: general procedure: Fmoc solid-phase peptide synthesis; Fmoc-Glu(Ot-Bu)-Wang resin (0.9 mmol/g); 1,6-diaminohexane trityl resin ([…]); HBTU/HOBt/diisopropylethylamine
Details: for purity (crude or final not stated) / final HPLC purity: HPLC
[1] = late stage modification step, TFA salt

With Ac-PLG˜Ahp-O(Boc)L-Ahxh-H the “purity (crude or final not stated)” value (whole synthesis) was 100%.

For Ac-PL-NLys(Boc)˜Ahp-Y(t-Bu)L-Ahxh-H, the “purity (crude or final not stated)” value (whole synthesis) was 95%.

With “PEPTIDE1{[ac].P.[Orn].G.[Hphe].L.[Ambh].[HynCz]}$$$$V2.0” the step yield (late stage modification step) was 71% and the “final HPLC purity” value (late stage modification step) was “HPLC purity, 100%”.

With Suc-PLG˜LYT-Ahxh-Hynic the “final HPLC purity” value was 100%.

In the case of Ac-PRG˜Hphe-Dab-A-Ahxh-Hynic, the “final HPLC purity” value is reported as 100%.

In the case of Ac-P-Cit-G˜S(OBn)-LA-Ahxh-H, the “purity (crude or final not stated)” value (whole synthesis) is reported as 100%.

In the case of Ac-NGlu(O-t-Bu)-PO(Boc)G-Hphe-L-OH, the isolated yield (whole synthesis) is reported as 37.1% and the “final HPLC purity” value (whole synthesis) is reported as 93.7% purity by HPLC.

For Ac-PLG˜Cit-LA-Ahxh-H, the “purity (crude or final not stated)” value (whole synthesis) was 95%.

With Ac-DArg-P-Aib-G˜Hphe-LA-Ahxh-Hynic the “final HPLC purity” value was 98%.

With Ac-NLys-PLG˜Hphe-RLA-Ahxh-Hynic the “final HPLC purity” value was 100%.

In the case of “X1-[dF][dF][Ahx]PLG[hPhe][Orn]LEE-OH (SMILES CC(C)C[C@H](NC(=O)[C@H](CCCN)NC(=O)[C@H](CCc1ccccc1)NC(=O)CNC(=O)[C@H](CC(C)C)NC(=O)[C@@H]1CCCN1C(=O)CCCCCNC(=O)[C@@H](Cc1ccccc1)NC(=O)[C@@H](Cc1ccccc1)NC(=O)c1ccc(N/N=C/c2ccccc2S(=O)(=O)O)nc1)C(=O)N[C@@H](CCC(=O)O)C(=O)N[C@@H](CCC(=O)O)C(=O)O)”, the “final HPLC purity” value (whole synthesis) is reported as “HPLC purity 100%” and the isolated yield (whole synthesis, overall) is reported as “overall yield 4.4%”.

With “X1-[dF][dF][dF][Ahx]PLG[hPhe][Orn]LEE-OH (SMILES CC(C)C[C@H](NC(=O)[C@H](CCCN)NC(=O)[C@H](CCc1ccccc1)NC(=O)CNC(=O)[C@H](CC(C)C)NC(=O)[C@@H]1CCCN1C(=O)CCCCCNC(=O)[C@@H](Cc1ccccc1)NC(=O)[C@@H](Cc1ccccc1)NC(=O)[C@@H](Cc1ccccc1)NC(=O)c1ccc(N/N=C/c2ccccc2S(=O)(=O)O)nc1)C(=O)N[C@@H](CCC(=O)O)C(=O)N[C@@H](CCC(=O)O)C(=O)O)” the “final HPLC purity” value (whole synthesis) was “HPLC purity 100%” and the isolated yield (whole synthesis, overall) was “overall yield 1.4%”.

With Ac-P-Cit-G˜Tle-LA-Ahxh-Hynic the “final HPLC purity” value was 100%.

In the case of Ac-Inp-Cit-G˜Hphe-LA-Ahxh-Hynic, the “final HPLC purity” value is reported as 99%.

In the case of Ac-Oic-LG˜LL-Ahxh-Ac, the “purity (crude or final not stated)” value is reported as 100%.

With H-DArg-P-Cit-G˜cLeu-LA-Ahxh-Hynic the “final HPLC purity” value was 100%.

With “N-((2S)-2-{(2S)-2-[2-((2S)-2-[((2S)-1-Acetylpyrrolidin-2-yl)carbonylamino]-N-{4-[(tert-butoxy)carbonylamino]butyl}-4-methylpentanoylamino)acetylamino]-4-methylpentanoylamino}-4-methylpentanoylamino)-6-aminohexanamide Trifluoroacetic Acid Salt” the step yield (late stage modification step) was 39% and the “final HPLC purity” value (late stage modification step) was 100%.

With Ac-P-Cha-G˜LL-Ahxh-H the “purity (crude or final not stated)” value (whole synthesis) was 100%.

In the case of Ac-PLG˜Ahp-Y(t-Bu)L-Ahxh-H, the “purity (crude or final not stated)” value (whole synthesis) is reported as 100%.

In the case of Ac-P-Cit-G˜Hphe-L-Ahxh-Hynic, the “final HPLC purity” value is reported as 100%.

With Ac-P-NLeu-G˜LL-Ahxh-Ac the “purity (crude or final not stated)” value was 100%.

For Piv-PLG˜LYT-Ahxh-Hynic, the “final HPLC purity” value was 93.4%.

With Ac-P-Cit-Cit˜LTA-Ahxh-Hynic the “final HPLC purity” value was 93%.

With Ac-P-O(Me)2-G˜Hphe-L-Nle-Ahxh-Hynic the “final HPLC purity” value was 100%.

For Ac-POG˜Hphe-Smc-T-Ahxh-Hynic, the “final HPLC purity” value was 100%.

For “PEPTIDE1{[ac].P.L.G.[Hphe].Y.L.[Ambh].[HynCz]}$$$$V2.0”, the step yield (late stage modification step) was 15% and the “final HPLC purity” value (late stage modification step) was “HPLC purity 100%”.

With Ac-P-Cit-G˜Igl-LA-Ahxh-Hynic the “final HPLC purity” value was 98%.

In the case of Ac-P-NMeArg-R˜LTA-Ambh-Hynic, the “final HPLC purity” value is reported as 100%.

With Ac-PLG˜L-Cha-Ahxh-Hynic the “final HPLC purity” value was 99%.

In the case of H-γ-DGlu-PLG-LYT-Ahxh-Hynic, the “final HPLC purity” value is reported as 92%.

For Ac-P-Cit-Hse˜Hphe-SA-Ahxh-Hynic, the “final HPLC purity” value was 100%.

For Ac-P-Cha-G˜Hphe-Cit-L-Ahxh-Ac, the “purity (crude or final not stated)” value was 100%.

For “PEPTIDE1{[ac].[NGlu].P.L.G.[Hphe].Y.L.[Ambh].[HynCz]}$$$$V2.0”, the step yield (late stage modification step) was 57% and the “final HPLC purity” value (late stage modification step) was “HPLC purity, 100%”.

For Ac-PLG˜L-Pya-L-Ahxh-H, the “purity (crude or final not stated)” value (whole synthesis) was 100%.

In the case of Ac-P-Cit-G˜Nle-LA-Ahxh-Hynic, the “final HPLC purity” value is reported as 100%.

For Ac-P-Cit-G˜Abu-LA-Ahxh-Hynic, the “final HPLC purity” value was 100%.

For “PEPTIDE1{[HynN].[Ahx].P.L.G.[Hphe].[Orn].L.E.E}$$$$V2.0”, the “final HPLC purity” value (whole synthesis) was “HPLC purity 100%” and the isolated yield (whole synthesis, overall) was “overall yield 7.5%”.

For Ac-PLG˜Ahp-YL-Ahxh-Ac, the “purity (crude or final not stated)” value was 100%.

In the case of Ac-P-Cit-G˜Hphe-O(Boc)L-Ahxh-H, the “purity (crude or final not stated)” value (whole synthesis) is reported as 90%.

For Ac-P-NLys-R˜LTA-Ahxh-Hynic, the “final HPLC purity” value was 99%.

For Ac-P-Cit-G˜Hphe-LT-Ahxh-Hynic, the “final HPLC purity” value was 98%.

In the case of Ac-Hpro-Cit-G˜Hphe-TA-Ahxh-Hynic, the “final HPLC purity” value is reported as 100%.

For 15: Ac-NGlu-POG˜Hphe-L-Hynic, the step yield (late stage modification step) was 66.7% and the “final HPLC purity” value (late stage modification step) was 100% purity by HPLC.

For “N-{(2S)-2-[(2S)-2-(2-{(2S)-2-[((2S)-1-Acetylpyrrolidin-2-yl)carbonylamino]-N-(4-aminobutyl)-4-methylpentanoylamino}acetylamino)-4-methylpentanoylamino]-4-methylpentanoylamino}-6-(acetylamino)hexanamide Trifluoroacetic Acid Salt”, the “final HPLC purity” value [1] was 100% and the step yield [1] was 83%.

For NLys-NLys-PLG˜Hphe-YL-Ahxh-Hynic, the “final HPLC purity” value was 100%.

For “PEPTIDE1{[ac].P.L.G.[Hphe].Y.L.[Ahxh].[HynCz]}$$$$V2.0”, the step yield (late stage modification step) was 29% and the “final HPLC purity” value (late stage modification step) was “HPLC purity, 100%”.

For Ac-P-Cit-Abu˜LTA-Ahxh-Hynic, the “final HPLC purity” value was 96%.

With Ac-PRR˜Cha-TA-Ambh-Hynic the “final HPLC purity” value was 100%.

In the case of Ac-PLG˜L-Cha-Ahxh-H, the “purity (crude or final not stated)” value (whole synthesis) is reported as 100%.

With Ac-P-Cha-G˜LL-Ahxh-Ac the “purity (crude or final not stated)” value was 100%.

In the case of Ac-P-Cit-G-Hphe-LA-Hynic, the “final HPLC purity” value is reported as 96%.

With “(2S)-N-[(1S)-1-(N-{(1S)-1-[N-(6-Aminohexanoylamino)carbamoyl]-3-methylbutyl}carbamoyl)-2-[4-(tert-butoxy)phenyl]ethyl]-2-(2-{(2S)-2-[((2S)-1-acetylpyrrolidin-2-yl)carbonylamino]-4-methylpentanoylamino}-acetylamino)hept-6-enamide” the step yield (late stage modification step) was 63% and the “final HPLC purity” value (late stage modification step) was 100%.

With “Ac-PLG[hPhe][Orn]LEE-{Hexamethylenediamine-X1} (SMILES CC(=O)N1CCC[C@H]1C(=O)N[C@@H](CC(C)C)C(=O)NCC(=O)N[C@@H](CCc1ccccc1)C(=O)N[C@@H](CCCN)C(=O)N[C@@H](CC(C)C)C(=O)N[C@@H](CCC(=O)O)C(=O)N[C@@H](CCC(=O)O)C(=O)NCCCCCCNC(=O)c1ccc(N/N=C/c2ccccc2S(=O)(=O)O)nc1)” the conjugation yield (conjugation step) was 56.0% and the “final HPLC purity” value (conjugation step) was 99.2% purity by HPLC.

For Ac-P-Cha-G˜Smc-HA-Ahxh-Hynic, the “final HPLC purity” value was 96%.

For Ac-P-Cit-G˜Hphe-LA-Ahxh-Ac, the “purity (crude or final not stated)” value was 98%.

For Ac-NGlu(Ot-Bu)-PLG-Hphe-Y(t-Bu)-L-ONH4, the “final HPLC purity” value (whole synthesis) was “HPLC purity 100%” and the isolated yield (whole synthesis, overall) was “overall yield 30%”.

For Ac-P-Cit-G˜Chg-LA-Ahxh-Hynic, the “final HPLC purity” value was 100%.

In the case of Ac-PLG˜Pabu-Cit-L-Ahxh-Ac, the “purity (crude or final not stated)” value is reported as 100%.

With Ac-PLG˜Cit-LA-Ahxh-Ac the “purity (crude or final not stated)” value was 100%.

With Ac-PLG˜L-Pya-L-Ahxh-Ac the “purity (crude or final not stated)” value was 100%.

With Ac-POG˜Hphe-L-Nle-Ahxh-Hynic the “final HPLC purity” value was 100%.

With H-NLys-PLG˜LYT-Ahxh-Hynic the “final HPLC purity” value was 90%.

For “PEPTIDE1{[ac].[Csa].P.L.G.[Hphe].Y.L.[Ambh].[HynCz]}$$$$V2.0”, the “final HPLC purity” value (conjugation step) was 100% purity by HPLC and the conjugation yield (conjugation step, corrected for the protected conjugate) was 64.5% corrected for the protected conjugate.

With Ac-P-DArg-R˜LTA-Ahxh-Hynic the “final HPLC purity” value was 98%.

With Ac-NGlu-PLG˜Hphe-YL-Ahxh-Ac the “purity (crude or final not stated)” value was 100%.

With Ac-NLys-PLG˜LL-Ahxh-Hynic the “final HPLC purity” value was 100%.

In the case of Ac-PLG˜Pabu-Cit-L-Ahxh-H, the “purity (crude or final not stated)” value (whole synthesis) is reported as 100%.

With Ac-P-Cit-G˜Hphe-LA-Ahxh-H the “purity (crude or final not stated)” value (whole synthesis) was 90%.

For “(2S)-N-{(1S)-1-[N-((1S)-1-{N-[6-(Acetylamino)hexanoylamino]carbamoyl}3-methylbutyl)carbamoyl]-2-(4-hydroxyphenyl)ethyl}-2-(2-{(2S)-2-[((2S)-1-acetylpyrrolidin-2-yl)carbonylamino]-4-methylpentanoylamino}acetylamino)hept-6-enamide”, the step yield (late stage modification step) was 94% and the “final HPLC purity” value (late stage modification step) was 100%.

For Ac-PL-NLys(Boc)-LL-dLeu-Ahxh-H, the “purity (crude or final not stated)” value (whole synthesis) was 97%.

With Ac-DAla-PRG˜Ile-LA-Ahxh-Hynic the “final HPLC purity” value was 100%.

In the case of Ac-Tic-Cit-G˜Hphe-SA-Ahxh-Hynic, the “final HPLC purity” value is reported as 89%.

In the case of Ac-P-Cit-G˜Hphe-LA-Ahxh-Hynic, the “final HPLC purity” value is reported as 100%.

For Ac-P-Cit-G˜Hphe-Cha-A-Ahxh-H, the “purity (crude or final not stated)” value (whole synthesis) was 100%.

For Ac-P-Cha-G˜Hphe-Cit-L-Ahxh-H, the “purity (crude or final not stated)” value (whole synthesis) was 100%.

For Ac-P-Cit-Aib˜Hphe-LA-Ahxh-Hynic, the “final HPLC purity” value was 99%.

With Ac-P-Cit-G˜Hphe-LQ-Hynic the “final HPLC purity” value was 100%.

For “PEPTIDE1{[ac].P.L.G.[Hphe].[Orn].L.[Ambh].[HynCz]}$$$$V2.0”, the step yield (late stage modification step) was 60.0% and the “final HPLC purity” value (late stage modification step) was 100% purity by HPLC.

In the case of Ac-P-Cit-G˜Aib-LA-Ahxh-Hynic, the “final HPLC purity” value is reported as 99%.

For NLys-PLG˜Hphe-YL-Ambh-Hynic, the “final HPLC purity” value was 100%.

In the case of Ac-NGlu(t-Bu)-PLG˜Hphe-YL-Ahxh-H, the “purity (crude or final not stated)” value (whole synthesis) is reported as 100%.

In the case of Ac-Oic-LG˜LL-Ahxh-H, the “purity (crude or final not stated)” value (whole synthesis) is reported as 90%.

With Ac-P-Cit-G˜Hphe-Cit-L-Ahxh-Hynic the “final HPLC purity” value was 98%.

With Ac-LRY˜Cha-TA-Ahxh-Hynic the “final HPLC purity” value was 100%.

For Ac-P-DLeu-G˜LL-Ahxh-Hynic, the “final HPLC purity” value was 100%.

With Ac-PLG˜Hphe-Cit-L-Ahxh-Hynic the “final HPLC purity” value was 97%.

HELM strings list residues between dots; [ac] is acetyl, [am] amide, other brackets name non-standard units. *1 amine or outer side, *2 acyl side, *3 side chain or, on linkers, in order; H or OH if unused. [ ]: non-standard residue; d: D form. The star is where a group is joined. X1 = O=C(c1ccc(N/N=C/c2ccccc2S(=O)(=O)O)nc1)*; Hexamethylenediamine = C(CCCN[*:2])CCN[*:1]; hPhe = N[C@@H](CCc1ccccc1)C(=O)O; Orn = NCCC[C@H](N)C(=O)O; Ahx = NCCCCCC(=O)O
